Measurements as given in patent US20180094250.
Negatives hold for the conditions tested.

Sequences of proteins named here, by UniProt entry; tags and fusion partners are left off. A change or cut given only in a name is not applied to a line headed by its entry.
UniProt P61875: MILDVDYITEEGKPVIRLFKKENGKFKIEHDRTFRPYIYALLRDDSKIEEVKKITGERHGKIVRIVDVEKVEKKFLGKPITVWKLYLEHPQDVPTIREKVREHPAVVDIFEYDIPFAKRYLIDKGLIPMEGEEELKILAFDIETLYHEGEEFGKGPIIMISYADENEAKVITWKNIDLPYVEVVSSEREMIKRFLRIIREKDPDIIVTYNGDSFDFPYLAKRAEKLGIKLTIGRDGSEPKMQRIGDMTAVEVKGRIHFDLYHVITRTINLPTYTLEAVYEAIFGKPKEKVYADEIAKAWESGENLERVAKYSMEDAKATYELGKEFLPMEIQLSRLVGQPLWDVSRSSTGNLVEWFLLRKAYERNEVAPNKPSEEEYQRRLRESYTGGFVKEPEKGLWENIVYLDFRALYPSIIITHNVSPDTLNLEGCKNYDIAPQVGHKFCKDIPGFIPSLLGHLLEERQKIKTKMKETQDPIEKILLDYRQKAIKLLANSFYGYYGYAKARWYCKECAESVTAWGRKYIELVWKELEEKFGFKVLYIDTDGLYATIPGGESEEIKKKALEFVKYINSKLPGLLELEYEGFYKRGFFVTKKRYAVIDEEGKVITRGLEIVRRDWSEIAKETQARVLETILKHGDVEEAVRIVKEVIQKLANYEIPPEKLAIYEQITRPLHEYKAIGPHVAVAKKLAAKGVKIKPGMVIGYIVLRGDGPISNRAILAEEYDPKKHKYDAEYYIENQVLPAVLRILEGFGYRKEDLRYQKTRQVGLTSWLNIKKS

Assays:
[1] = target: ECA001 modified with 2,3-diphenylmaleic anhydride, not activated (UniProt P61875); assay: activity assay; details: enzyme inactivated by DPMA; binding not measured; purified recombinant protein; label: 5' BHQ1, FAM on penultimate dT; folded or branched DNA
[2] = target: ECA001G (citraconic anhydride-modified ECA001, not activated) (UniProt P61875); assay: activity assay; details: no detectable polymerase activity before activation; binding not measured; purified recombinant protein; label: 5' BHQ1, FAM on penultimate dT; folded or branched DNA
[3] = target: ECA001 modified with 2,3-diphenylmaleic anhydride, not activated (UniProt P61875); assay: enzyme reaction in vitro; details: enzyme inactivated by DPMA; binding not measured; purified recombinant protein; label: 5' BHQ, FAM on 3'-terminal dT; folded or branched DNA
[4] = target: ECA001G (citraconic anhydride-modified ECA001, not activated) (UniProt P61875); assay: enzyme reaction in vitro; details: no detectable exonuclease activity before activation; binding not measured; purified recombinant protein; label: 5' BHQ, FAM on 3'-terminal dT; folded or branched DNA

Row | Sequence | activity on this sequence [1] | activity on this sequence [2] | activity on this sequence [3] | activity on this sequence [4]
1 | ATCATCATATCATCAACTGGCCGTCGTTTTACATATGTAAAACGACGGCCAGTT [Polsub14] | not active | not active | – | –
2 | TTTTCTGGCCGTCGTTTTACATATGTAAAACGACGGCCAGT [Exo-MM HP] | – | – | not active | not active
